# Patent US12364721B2, “Compositions and methods for treatment of inflammatory and immune diseases” (Prolacta Bioscience, Inc., priority 2019, dated 2025)
# At least one compound was matched to its structure with a doubt left.
# Assays:
# Format in all cases: cell-based
# [1] = test system: B. longum subsp. infantis; assay: Viability of B. longum subsp. infantis after exposure to acid reducing compounds (anaerobic CFU); settings: 1 μg/ml and 0.5 μg/ml in citrate buffer (pH 5), 3 hours at 37° C.; with respect to buffer only controls
# Procedure: Viability of B. longum subsp. infantis following exposure to various acid reducing compounds was examined. The benzimidazole derivative compounds omeprazole, esomeprazole, lansoprazole, pantoprazole, and rabeprazole and the H2 receptor antagonist famotidine were suspended in citrate buffer (pH 5) to concentrations of 1 μg/ml and 0.5 μg/ml. An amount of 2.4×10^8 colony forming units (CFU) B. longum subsp. infantis was pelleted and resuspended in each of the citrate buffer and drug solutions. Controls included 2.4×10^8 CFU B. longum subsp. infantis added to citrate buffer alone. Cells were incubated for 3 hours at 37° C. and then plated under anaerobic conditions. Anaerobic CFU were quantified to assess viability.
# [2] = test system: B. longum subsp. infantis; assay: Growth of B. longum subsp. infantis in the presence of acid-reducing compounds (qPCR); settings: 24 hours; 500 μg/mL, 250 μg/mL, or 125 μg/mL; versus vehicle controls
# [3] = test system: B. longum subsp. infantis; assay: Growth of B. longum subsp. infantis in the presence of acid-reducing compounds (OD600); settings: 24 hours; 500 μg/mL or 250 μg/mL; versus vehicle controls
# Procedure: Growth of B. longum subsp. infantis was assessed in the presence of various acid-reducing compounds, including proton pump inhibitor (PPI) compounds and an H2 receptor antagonist. Stock solutions were prepared by adding 10 mg/mL omeprazole, esomeprazole, lansoprazole, pantoprazole, rabeprazole, and famotidine to DMSO. The stock solutions were diluted 1:4 in PBS and then added in 2-fold serial dilutions to Reinforced Clostridial Media (RCM). The media was then inoculated with 5×10^5 colony forming units (CFU) of B. longum subsp. infantis and incubated under anaerobic conditions at 37° C. Vehicle only control groups consisted of 5×10^5 CFU B. longum subsp. infantis incubated in RCM with the same amounts of PBS and DMSO as the PPI conditions for each dose.
structure (smiles),measurement,setting,value
COc1ccc2[nH]c([S+]([O-])Cc3ncc(C)c(OC)c3C)nc2c1 (stereo not drawn) [omeprazole],anaerobic CFU counts,[1],reduced
same,B. longum subsp. infantis copy number by qPCR,[2],trends of reduced of B. longum subsp. infantis copy number
same,OD600 values,[3],reduced OD600 values compared to vehicle controls
